Experimental data: paper PMC6123813 (Communications biology, 2018)
These are yes or no findings as the source states them, for the method shown. Binding seen in cells or lysates may run through a third protein. Some results given as binding are weak or reduced against the parent protein; the word gives no strength. Blank lines part the entries; values can stand above or below the molecule they belong to.

Key:
Experiment in all cases: FRET or BRET; FSI-FRET between EphA2-mTurq and EphA2-eYFP in the plasma membrane of live HEK293T cells in hypo-osmotic medium; with 5 μg per ml (~50 nM) ephrinA1-Fc; also at donor to acceptor ratios 3:1, 1:1, 1:3
[1] = biological target: EphA2 G131Y mutant, full-length, tagged at the C-terminus with mTurquoise or eYFP (UniProt P29317)
[2] = biological target: EphA2 R103E mutant, full-length, tagged at the C-terminus with mTurquoise or eYFP (UniProt P29317)
[3] = biological target: EphA2 L223R/L254R/V255R triple mutant, full-length, tagged at the C-terminus with mTurquoise or eYFP (UniProt P29317)

- binding [1]: binds
Molecule: EphA2 G131Y mutant, full-length, tagged at the C-terminus with mTurquoise or eYFP (from UniProt P29317 24-976) (receptor)

- binding [2]: binds
Molecule: EphA2 R103E mutant, full-length, tagged at the C-terminus with mTurquoise or eYFP (from UniProt P29317 24-976) (receptor)

- binding [3]: binds
B1: EphA2 L223R/L254R/V255R triple mutant, full-length, tagged at the C-terminus with mTurquoise or eYFP (receptor, UniProt P29317 24-976, looked up)
chain: AQGKEVVLLDFAAAGGELGWLTHPYGKGWDLMQNIMNDMPIYMYSVCNVMSGDQDNWLRTNWVYRGEAERIFIELKFTVRDCNSFPGGASSCKETFNLYYAESDLDYGTNFQKRLFTKIDTIAPDEITVSSDFEARHVKLNVEERSVGPLTRKGFYLAFQDIGACVALLSVRVYYKKCPELLQGLAHFPETIAGSDAPSRATVAGTCVDHAVVPPGGEEPRMHCAVDGEWRRPIGQCLCQAGYEKVEDACQACSPGFFKFEASESPCLECPEHTLPSPEGATSCECEEGFFRAPQDPASMPCTRPPSAPHYLTAVGMGAKVELRWTPPQDSGGREDIVYSVTCEQCWPESGECGPCEASVRYSEPPHGLTRTSVTVSDLEPHMNYTFTVEARNGVSGLVTSRSFRTASVSINQTEPPKVRLEGRSTTSLSVSWSIPPPQQSRVWKYEVTYRKKGDSNSYNVRRTEGFSVTLDDLAPDTTYLVQVQALTQEGQGAGSKVHEFQTLSPEGSGNLAVIGGVAVGVVLLLVLAGVGFFIHRRRKNQRARQSPEDVYFSKSEQLKPLKTYVDPHTYEDPNQAVLKFTTEIHPSCVTRQKVIGAGEFGEVYKGMLKTSSGKKEVPVAIKTLKAGYTEKQRVDFLGEAGIMGQFSHHNIIRLEGVISKYKPMMIITEYMENGALDKFLREKDGEFSVLQLVGMLRGIAAGMKYLANMNYVHRDLAARNILVNSNLVCKVSDFGLSRVLEDDPEATYTTSGGKIPIRWTAPEAISYRKFTSASDVWSFGIVMWEVMTYGERPYWELSNHEVMKAINDGFRLPTPMDCPSAIYQLMMQCWQQERARRPKFADIVSILDKLIRAPDSLKTLADFDPRVSIRLPSTSGSEGVPFRTVSEWLESIKMQQYTEHFMAAGYTAIEKVVQMTNDDIKRIGVRLPGHQKRIAYSLLGLKDQVNTVGIPI
